Values from PubChem BioAssay AID602196 (INSERM, 2012)

Assay: 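Genes whose knock-down alters cisplatin killing of lung cancer cells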
Cells: human A549 lung cancer cells
Reagent: siRNA pair against human genes
Duration: 48 h transfection before cisplatin; time from cisplatin to read-out not stated
Treatment: cisplatin at a dose killing half of control-siRNA cells; exact dose and duration not given
Measured: 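Shift in cisplatin death relative to control siRNA, from -50 (all cells die) to +50 (no cells die); siRNAs harmful on their own scored 0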
Reading the numbers: two-siRNA summed score (-2 to +2): higher = both siRNAs protect from cisplatin killing; -2 means both sensitise; mean protection from cisplatin (shift in death): higher = protection from cisplatin killing
Hit rule: 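Each siRNA scores 0 if harmful alone by LDH or WST-1, otherwise +1 if it reduces and -1 if it increases cisplatin killing; a gene is active when both siRNAs agree (sum +2 or -2)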
Calls: active = both siRNAs shift cisplatin killing the same way; inactive = no consistent shift, or siRNA harmful alone
Here is one part, drawn at random, of about 23,000 reagents tested. In the full data, 455 (2%) were called active. 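Active includes both protection and sensitisation; some change values fall well beyond the stated -50 to +50 range.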 Further read-outs or replicates are left out here. The record does not give: the amount of reagent.

{"gene": "PDZD7", "two-siRNA summed score (-2 to +2)": 0, "mean protection from cisplatin (shift in death) (%)": 1.1, "activity call": "inactive"}
{"gene": "INSR", "two-siRNA summed score (-2 to +2)": 0, "mean protection from cisplatin (shift in death) (%)": -1.3, "activity call": "inactive"}
{"gene": "STK38L", "two-siRNA summed score (-2 to +2)": 0, "mean protection from cisplatin (shift in death) (%)": 1.4, "activity call": "inactive"}
{"gene": "UMODL1-AS1", "two-siRNA summed score (-2 to +2)": 0, "mean protection from cisplatin (shift in death) (%)": 5.7, "activity call": "inactive"}
{"gene": "TAX1BP1", "two-siRNA summed score (-2 to +2)": 0, "mean protection from cisplatin (shift in death) (%)": 12.6, "activity call": "inactive"}
{"gene": "CILK1", "two-siRNA summed score (-2 to +2)": 0, "mean protection from cisplatin (shift in death) (%)": 7.3, "activity call": "inactive"}
{"gene": "LOC387933", "two-siRNA summed score (-2 to +2)": 1, "mean protection from cisplatin (shift in death) (%)": 17.3, "activity call": "inactive"}
{"gene": "TAFAZZIN", "two-siRNA summed score (-2 to +2)": 0, "mean protection from cisplatin (shift in death) (%)": -4.9, "activity call": "inactive"}
{"gene": "FLJ11539", "two-siRNA summed score (-2 to +2)": 0, "mean protection from cisplatin (shift in death) (%)": 2.5, "activity call": "inactive"}
{"gene": "ATPSCKMT", "two-siRNA summed score (-2 to +2)": 2, "mean protection from cisplatin (shift in death) (%)": 20.5, "activity call": "active"}
{"gene": "LOC387901", "two-siRNA summed score (-2 to +2)": 0, "mean protection from cisplatin (shift in death) (%)": 7.7, "activity call": "inactive"}
{"gene": "KCNA1", "two-siRNA summed score (-2 to +2)": 0, "mean protection from cisplatin (shift in death) (%)": -0.8, "activity call": "inactive"}
{"gene": "FLJ35816 (retired record)", "two-siRNA summed score (-2 to +2)": 0, "mean protection from cisplatin (shift in death) (%)": 0.9, "activity call": "inactive"}
{"gene": "SLC4A10", "two-siRNA summed score (-2 to +2)": 0, "mean protection from cisplatin (shift in death) (%)": -18.4, "activity call": "inactive"}
{"gene": "LOC400606", "two-siRNA summed score (-2 to +2)": 0, "mean protection from cisplatin (shift in death) (%)": -9.3, "activity call": "inactive"}
{"gene": "FLJ14959", "two-siRNA summed score (-2 to +2)": 0, "mean protection from cisplatin (shift in death) (%)": 6.3, "activity call": "inactive"}
{"gene": "BCAS2", "two-siRNA summed score (-2 to +2)": 1, "mean protection from cisplatin (shift in death) (%)": 7.5, "activity call": "inactive"}
{"gene": "IDO1", "two-siRNA summed score (-2 to +2)": -1, "mean protection from cisplatin (shift in death) (%)": -16.1, "activity call": "inactive"}
{"gene": "SEPTIN9", "two-siRNA summed score (-2 to +2)": 0, "mean protection from cisplatin (shift in death) (%)": -2, "activity call": "inactive"}

The list goes on; the last 3 above are carried over.
{"gene": "BCAS2", "two-siRNA summed score (-2 to +2)": 1, "mean protection from cisplatin (shift in death) (%)": 7.5, "activity call": "inactive"}
{"gene": "IDO1", "two-siRNA summed score (-2 to +2)": -1, "mean protection from cisplatin (shift in death) (%)": -16.1, "activity call": "inactive"}
{"gene": "SEPTIN9", "two-siRNA summed score (-2 to +2)": 0, "mean protection from cisplatin (shift in death) (%)": -2, "activity call": "inactive"}
{"gene": "F2RL2", "two-siRNA summed score (-2 to +2)": 0, "mean protection from cisplatin (shift in death) (%)": 0.5, "activity call": "inactive"}
{"gene": "TARS2", "two-siRNA summed score (-2 to +2)": 0, "mean protection from cisplatin (shift in death) (%)": 12.6, "activity call": "inactive"}
{"gene": "PCLO", "two-siRNA summed score (-2 to +2)": 0, "mean protection from cisplatin (shift in death) (%)": 9.3, "activity call": "inactive"}
{"gene": "BZW1", "two-siRNA summed score (-2 to +2)": 0, "mean protection from cisplatin (shift in death) (%)": 6.6, "activity call": "inactive"}
{"gene": "LINC00313", "two-siRNA summed score (-2 to +2)": 0, "mean protection from cisplatin (shift in death) (%)": -6.8, "activity call": "inactive"}
{"gene": "OR1C1", "two-siRNA summed score (-2 to +2)": 0, "mean protection from cisplatin (shift in death) (%)": -4.1, "activity call": "inactive"}
{"gene": "DUSP2", "two-siRNA summed score (-2 to +2)": 0, "mean protection from cisplatin (shift in death) (%)": 1.2, "activity call": "inactive"}
{"gene": "CCNJL", "two-siRNA summed score (-2 to +2)": 0, "mean protection from cisplatin (shift in death) (%)": 2.7, "activity call": "inactive"}
{"gene": "NOX3", "two-siRNA summed score (-2 to +2)": 0, "mean protection from cisplatin (shift in death) (%)": -1.9, "activity call": "inactive"}
{"gene": "SEC23B", "two-siRNA summed score (-2 to +2)": 0, "mean protection from cisplatin (shift in death) (%)": 3, "activity call": "inactive"}
{"gene": "UNC50", "two-siRNA summed score (-2 to +2)": 0, "mean protection from cisplatin (shift in death) (%)": 10.2, "activity call": "inactive"}
{"gene": "PAIP1", "two-siRNA summed score (-2 to +2)": 0, "mean protection from cisplatin (shift in death) (%)": 2.3, "activity call": "inactive"}
